The results in this text go back to patent US20020098524A1 (published 2002).

Protein sequences, listed by entry. Tags and fused reporters are not part of them. Lines headed by an entry give the natural chain unless they say otherwise; changes in a name come on top. Chains listed by the source or under a name are the forms on record and can include a tag or linker.
recombinant human VEGF (P15692, form named): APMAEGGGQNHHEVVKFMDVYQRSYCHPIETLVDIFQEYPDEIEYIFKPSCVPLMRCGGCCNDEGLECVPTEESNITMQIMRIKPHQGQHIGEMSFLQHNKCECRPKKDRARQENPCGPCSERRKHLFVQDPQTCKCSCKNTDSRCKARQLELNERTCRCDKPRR

To fix the notation:
B1: BP 84 (…) (peptide)
peptide: CSLWPAFWC
B2: BP 83 (…) (peptide)
peptide: CNLWPHFWC
B3: BP 02 (…) (peptide)
peptide: CTLYPQFWC
B4: BP 86 (…) (peptide)
peptide: CAPWNSHIC
B5: BP 96 (…) (peptide)
peptide: CLPSWHLRC
B6: BP 85 (…) (peptide)
peptide: CSLWPHFWC
B7: BP 87 (…) (peptide)
peptide: CAPWNLHIC
B8: BP 81 (…) (peptide)
peptide: CYNLYGWTC
B9: BP 82 (…) (peptide)
peptide: CTLWPTFWC
B10: BP 04 (…) (peptide)
peptide: CHLAPSAVC
B11: BP 97 (…) (peptide)
peptide: CPTILEWYC
B12: V-3 (…) (peptide)
peptide: CRPTGHSLC
B13: V-8 (…) (peptide)
peptide: CPYKASFYC
B14: V-6 (…) (peptide)
peptide: CPVTKRVHC
B15: V-15 (…) (peptide)
peptide: CADRSFRYC
B16: V-1 (…) (peptide)
peptide: CSKHSQITC
B17: V-9 (…) (peptide)
peptide: CPLRTSHTC
B18: V-14 (…) (peptide)
peptide: CSTTSPNMC
B19: V-2 (…) (peptide)
peptide: CKTNPSGSC
B20: V-11 (…) (peptide)
peptide: CNPLHTLSC
B21: V-12 (…) (peptide)
peptide: CKHERIWSC
B22: V-17 (…) (peptide)
peptide: CPNQSHLHC
B23: V-18 (…) (peptide)
peptide: CSGSETWMC
B24: V-5 (…) (peptide)
peptide: CKPSSASSC
B25: V-13 (…) (peptide)
peptide: CATNPPPMC
B26: V-21 (…) (peptide)
peptide: CITPKRPYC
B27: V-16 (…) (peptide)
peptide: CPKADSKQC
B28: V-24 (…) (peptide)
peptide: CNVQSLPLC
B29: V-19 (…) (peptide)
peptide: CALSAPYSC
B30: V-23 (…) (peptide)
peptide: CPNANAPSC
B31: V-7 (…) (peptide)
peptide: CTLHWWVTC
B32: V-4 (…) (peptide)
peptide: CKHSAKAEC
B33: V-20 (…) (peptide)
peptide: CKMPTSKVC
B34: V-10 (…) (peptide)
peptide: CEATPRDTC
B35: V-22 (…) (peptide)
peptide: CKWIVSETC

These are yes or no findings as the source states them, for the method shown. Some results given as binding are weak or reduced against the parent protein; the word gives no strength.

In one assay the target is recombinant human VEGF (human) (UniProt P15692). Put plainly: conventional phage biopanning on VEGF, acid elution, 3 rounds.
Take B1: the binding result is “binds”.
On the same count and under the same terms, the entry for B2 is “binds”; for B3 it is “binds”.
The same measure, in the same setting: the entry for B4 is “binds”; for B5 it is “binds”.
On the same count and under the same terms, the entry for B6 is “binds”; for B7 it is “binds”.
For B8, the binding entry is reported as “binds”.
The same measure, in the same setting: the entry for B9 is “binds”; for B10 it is “binds”.
For B11, the binding entry is recorded as “binds”.

A further assay shares this target. Put plainly: phage display selection on VEGF-coated polystyrene beads after deselection on whole human blood, 2 rounds, PCR of bound phage.
On to B12, for which the binding entry is “binds”.
Still for that read-out and setting: the entry for B13 is “binds”; for B14 it is “binds”; for B15 it is “binds”.
Still for that read-out and setting: the entry for B16 is “binds”.
On the same count and under the same terms, the entry for B17 is “binds”.
Take B18: the binding entry is “binds”.
For B19, the binding entry is listed as “binds”.
Still for that read-out and setting: the entry for B20 is “binds”; for B21 it is “binds”.
Same read-out and setting: the entry for B22 is “binds”; for B23 it is “binds”.
Same read-out and setting: the entry for B24 is “binds”.
Consider B25, for which the binding result was “binds”.
Still for that read-out and setting: the entry for B26 is “binds”; for B27 it is “binds”; for B28 it is “binds”.
As for B29, the binding result was “binds”.
For the molecule B30, the binding entry is recorded as “binds”.
Consider B31, for which the binding result is “binds”.
Still for that read-out and setting: the entry for B32 is “binds”; for B33 it is “binds”.
Same read-out and setting: the entry for B34 is “binds”; for B35 it is “binds”.
